Experimental data: PubChem BioAssay AID1259308 (NCATS, 2017)
The whole screen tested about 59,000 reagents; shown is a random part of them. About 1,510 of them (2.6%) were called active. 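Calls use total luciferase alone and ignore viability, so some active siRNAs may act by altering cell number.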 Entries without a mark were called inactive. Reagents against one gene are numbered here. Further read-outs or replicates are left out here.

Purpose: 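Genes whose loss raises luciferase production in HEK293 cells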 (primary screen)
Cell system: human HEK293 embryonic kidney cells stably expressing firefly luciferase (HEK-CMV-Luc2-Hygro)
Reagents: single siRNA against human genes, 0.8 pmol siRNA per well
Duration: 72 h
Read-out: 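Reporter luminescence and viable-cell signal on separate replicate plates, given as percent of non-targeting control and median/MAD z-scores, plus per-cell luciferase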
Direction: total luciferase, z-score and total luciferase, % of control: higher = more reporter protein produced
Call rule: 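Active when the median/MAD z-score for overall luciferase is greater than 3; a gene was taken forward for validation with new siRNAs if at least two of its three siRNAs passed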
Meaning of the calls: active = raised luciferase; inactive = no rise

Against BRI3 (brain protein I3) #1, the values are total luciferase, z-score 0.218; total luciferase, % of control 86.2. With knock-down of BRI3 (brain protein I3) #2 the results were total luciferase, z-score -1.4; total luciferase, % of control 54.1. For BRI3 (brain protein I3) #3, the values are total luciferase, z-score 0.555; total luciferase, % of control 92.9. LINC00999 (long independently transcribed non-coding RNA 999) #1 scored total luciferase, z-score 0.352; total luciferase, % of control 88.9. Knock-down of LINC00999 (long independently transcribed non-coding RNA 999) #2 gave: total luciferase, z-score 2.89; total luciferase, % of control 139. After knock-down of LINC00999 (long independently transcribed non-coding RNA 999) #3, the screen gave total luciferase, z-score -0.622; total luciferase, % of control 69.5.

ULK4 (unc-51 like kinase 4) #1 gave total luciferase, z-score 0.921; total luciferase, % of control 100. Silencing of ULK4 (unc-51 like kinase 4) #2 resulted in: total luciferase, z-score 3.56 (active); total luciferase, % of control 153. For ULK4 (unc-51 like kinase 4) #3, the entry reads total luciferase, z-score 1.92; total luciferase, % of control 120. Depletion of ZNF33A (zinc finger protein 33A) #1 resulted in: total luciferase, z-score -0.708; total luciferase, % of control 67.8. After knock-down of ZNF33A (zinc finger protein 33A) #2, the screen gave total luciferase, z-score -1.24; total luciferase, % of control 57.3. ZNF33A (zinc finger protein 33A) #3 gave total luciferase, z-score 1.25; total luciferase, % of control 107.

EIF2B5 (eukaryotic translation initiation factor 2B subunit epsilon) #1 showed total luciferase, z-score -2.16; total luciferase, % of control 38.9. EIF2B5 (eukaryotic translation initiation factor 2B subunit epsilon) #2 showed total luciferase, z-score -1.23; total luciferase, % of control 57.5. After knock-down of EIF2B5 (eukaryotic translation initiation factor 2B subunit epsilon) #3, the screen gave total luciferase, z-score -0.723; total luciferase, % of control 67.5. With knock-down of MPPE1 (metallophosphoesterase 1) #1, the record shows total luciferase, z-score -1.54; total luciferase, % of control 51.3. MPPE1 (metallophosphoesterase 1) #2 scored total luciferase, z-score -0.343; total luciferase, % of control 75.1. After knock-down of MPPE1 (metallophosphoesterase 1) #3, the screen gave total luciferase, z-score 2.23; total luciferase, % of control 126.

After knock-down of KAT2B (lysine acetyltransferase 2B) #1 the results were total luciferase, z-score 0.423; total luciferase, % of control 90.3. Against KAT2B (lysine acetyltransferase 2B) #2, the values are total luciferase, z-score 0.156; total luciferase, % of control 85. Against KAT2B (lysine acetyltransferase 2B) #3 the deposit lists total luciferase, z-score 1.05; total luciferase, % of control 103. Silencing of FUT6 (fucosyltransferase 6) #1 came out at: total luciferase, z-score 1.91; total luciferase, % of control 120. FUT6 (fucosyltransferase 6) #2 scored total luciferase, z-score -0.647; total luciferase, % of control 69. FUT6 (fucosyltransferase 6) #3 scored total luciferase, z-score -1.19; total luciferase, % of control 58.1.

Against LGALS16 (galectin 16) #1 the deposit lists total luciferase, z-score -1.25; total luciferase, % of control 57. Silencing of LGALS16 (galectin 16) #2 came out at: total luciferase, z-score -0.81; total luciferase, % of control 65.8. Silencing of LGALS16 (galectin 16) #3 resulted in: total luciferase, z-score -1.54; total luciferase, % of control 51.2. Silencing of HP (haptoglobin) #1 resulted in: total luciferase, z-score 0.507; total luciferase, % of control 92. With knock-down of HP (haptoglobin) #2 the results were total luciferase, z-score -0.594; total luciferase, % of control 70.1. HP (haptoglobin) #3 gave total luciferase, z-score -1.19; total luciferase, % of control 58.1.

Knock-down of EXOC3 (exocyst complex component 3) #1 came out at: total luciferase, z-score 0.86; total luciferase, % of control 99. EXOC3 (exocyst complex component 3) #2 showed total luciferase, z-score -0.289; total luciferase, % of control 76.1. For EXOC3 (exocyst complex component 3) #3, the entry reads total luciferase, z-score 0.0704; total luciferase, % of control 83.3.

4 entries from above in another layout.
{"target gene": "ZNF33A (zinc finger protein 33A)", "reagent": 2, "total luciferase, z-score": -1.24, "total luciferase, % of control": 57.3}
{"target gene": "ZNF33A (zinc finger protein 33A)", "reagent": 3, "total luciferase, z-score": 1.25, "total luciferase, % of control": 107}
{"target gene": "EIF2B5 (eukaryotic translation initiation factor 2B subunit epsilon)", "reagent": 1, "total luciferase, z-score": -2.16, "total luciferase, % of control": 38.9}
{"target gene": "EIF2B5 (eukaryotic translation initiation factor 2B subunit epsilon)", "reagent": 2, "total luciferase, z-score": -1.23, "total luciferase, % of control": 57.5}
